Test results from PMC9271091.
For at least one entry, the source does not settle the construct or the ends of the probe. For some assays here: The comparison behind a weaker result is the experiment's own reference, which may not be listed here. For some assays here: At least one verdict rests on a figure or table, not on a statement of the authors.

The chains behind the UniProt entries cited, without tags or fusion partners. Residues count along the entry.
UniProt P48431, 41-109 K42C: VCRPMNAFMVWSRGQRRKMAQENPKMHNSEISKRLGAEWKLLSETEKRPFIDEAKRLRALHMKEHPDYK
UniProt P48431, 41-109 K42C/W79A: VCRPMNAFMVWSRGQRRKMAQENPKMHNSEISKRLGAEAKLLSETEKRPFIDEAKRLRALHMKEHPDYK

Tests used:
[1] = biological target: Sox2-HMGB K42C (Homo sapiens) (UniProt P48431); assay: EMSA; conditions: 10 nM DNA; room temperature, 30 min; 5% native PAGE, 0.5x TBE, 4 °C; recombinant protein; label: none (SYBR Gold stain)
[2] = biological target: Sox2-HMGBW79A K42C,W79A (Homo sapiens) (UniProt P48431); assay: EMSA; conditions: 10 nM DNA; room temperature, 30 min; 5% native PAGE, 0.5x TBE, 4 °C; recombinant protein; label: none (SYBR Gold stain)

Sequence: GGCCGCTCTAGAGATATCCCCGAGGGTCGAACCATGATGCCGGATCCCCTTTGTTATGCATCTGCCGAGGCCGCTCAATTGGTCGTAGACAGCTCTAGCACCGCTTAAACGCACGTACGCGCTGTCCCCCGCGTTTTAACCGCCAAGGGGATTACTCCCTAGTCTCCAGGCACGTGTCACATATATACATCCTGTTCCAGTGCCGGTGTCGCTTGGGTCCCGAGGATATCAAG (double strand) [233-bp 601 DNA with Sox2 motif]
- binding result [1]: binds
- binding result [2]: binds more weakly
